Test results from PubChem BioAssay AID2417 (National Center for Advancing Translational Sciences (NCATS), 2010).
Among all 140,000 compounds or so, about 4,300 (3.1%) were called active. The inconclusive results got no clear call from the source; some entries with a clear call stand among them for comparison.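 Rule for the calls: active = readout at or below -70, meaning at least 70% loss of cells showing the perinucleolar compartment, a nuclear body marking cancer cells; inconclusive = readout between -30 and a set limit; inactive = the rest.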

assay: High Content Assay for Compounds that inhibit the Assembly of the Perinucleolar Compartment; conditions: PC3M PTB-GFP, PNC prevalence imaging, 16 h; at 10 µM; active compounds read low;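 note: plate controls were DMSO wells for no effect and camptothecin positive control wells for full effect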
Source text: High Content Assay for Compounds that inhibit the Assembly of the Perinucleolar Compartment NIH Chemical Genomics Center [NCGC] NIH Molecular Libraries Probe Centers Network [MLPCN] MLPCN Grant: MH082371-01A2 Assay Submitter (PI): Sui Huang, Northwestern University, Feinberg School of Medicine, Cell and Molecular Biology, Chicago, Illinois. The perinucleolar compartment (PNC) is a non-membrane-bound nuclear subdomain that is associated with but structurally distinct from the nucleolus. The PNC is a heritable trait, in which the number of PNCs per cell in daughter cells often mimics that of their mother cells. The PNC is heterogeneous in shape, is stable through interphase, disassembles during mitosis, and reassembles in early G1. The PNC is concentrated with newly synthesized RNA polymerase III (pol III) RNAs (MRP RNA, RNAse P H1 RNA, hY RNAs[hY1, 2, 5], Alu RNA, and SRP [7SL] RNA) and RNA binding proteins (nucleolin, PTB, CUG-BP, KSRP, Raver1, Raver2, and Rod). […] Extensive in vitro studies have shown that the PNC is unique to tumor cells and preferentially forms in tumor cells derived from solid tissues. Examination of cancer cell lines from various origins and malignant capacities has shown that PNC prevalence correlates with the malignancy of tumors and has the potential to be developed as a pan-cancer prognostic marker. […] Although the PNC is associated with a DNA locus and a handful of components have been identified, much remains to be investigated regarding the structure and function of the PNC and its mechanistic link to cancer. We have previously shown that PNC prevalence reduction is a valid strategy to identify compounds that can be used to study the structure and function of the PNC. It is necessary, however, to create a screening platform that is able to test a large number of compounds in an automated fashion. Here we report the development and robustness of an automated whole-cell phenotypic image-based screening assay that is capable of identifying such compounds.
PNC High Content Imaging Assay Procedure: 1. Cells at a density of 75-90% confluency in T175 flasks were harvested using 7 ml TrypLE Express cell dissociation reagent. After dissociation (5 minutes room temperature incubation) 10 ml of complete media was added to the TrypLE/cell suspension. The liquid was transferred to a 50 ml Conical tube and cells were pelleted at 1000 RPM for 5 min. Supernatant was removed and cells were resuspended to a final density of 150-200 cells/ul in complete media. 2. Cells were plated in 5 ul volume (750-1000 cells/well) into 1536 well Black uclear Aurora Low Base plates and allowed to recover and adhere at 37 C in a humidified 5% CO2 incubator for 4 hours. 3. After 4 hour incubation, compound libraries (23 nl of […] in columns 5-48) were transferred to the plates in duplicate using a 1536 well pintool. Camptothecin positive control (59 uM final) was added to column 2 and 1:3 dilutions of camptothecin was added to column 3. DMSO negative controls were present in columns 1 and 4. 4. After a 16 hour incubation in the 37 C incubator, cells were fixed by the addition of 4 ul of 6% EM grade paraformaldehyde (containing 0.1% triton X 100) directly to the cells. The plates were incubated at room temperature for 20 minutes. The liquid was removed using a 32 channel Kalypsys aspirator and the fixed cells were washed twice with 5 ul PBS followed by a final addition of 5 ul PBS containing 1 ug/ml Hoechst 33342. 5. Fixed plates were sealed and sotred at 4C until imaged. 6. Plates were imaged on an InCell 1000 automated microscope using a 20 x objective, a standard FITC filter set, no camera binning, and an exposure time of ~100-150 msec/well. 7. Data analysis. PNC prevalence was determined using the Multitarget analysis module from InCell Workstation software (V3.5 ) and analysis was run on a quad core workstation using the Incell Developer Toolbox (V1.7). […]

Structure (SMILES) | activity change (PNC), negative = inhibition
Cc1cc(C(=O)NC(=S)Nc2ccccc2N2CCOCC2)ccc1[N+](=O)[O-] | inactive: 51.6%
O=C(COC(=O)[C@H](Cc1ccccc1)NC(=O)c1cccs1)Nc1ccccc1C(F)(F)F | inconclusive: -64%
C/C(Cc1ccccc1)=N\NC(=O)CNC(=O)c1ccc(C(C)(C)C)cc1 | inconclusive: -43.5%
CCOc1ccc(/C=N/NC(=O)C(=O)NCc2ccco2)cc1 | inactive: 3.2%
CCCC(=O)Nc1ccc2c(c1)c1ccccc1n2CC | inconclusive: -50.5%
Cc1ccc(-c2cc(-c3ccccc3Cl)[nH]n2)c(O)c1 | inactive: -8.32%
COc1ccc(C(=O)N2CCc3ccccc32)cc1 | inactive: -19%
CCOC(=O)Cc1nnn(CC(=O)OCC)n1 | inactive: 10.8%
COc1ccc(NC(=O)c2cc(-c3ccccc3)oc2C)cc1 | inconclusive: -42.3%
CC(O)CN(Cc1cccc(Cl)c1)CC(C)O (configuration not stated) | inactive: 24.1%
CCOC(=O)CSc1nc2ccc(S(=O)(=O)N3CCOCC3)cc2[nH]1 | inactive: 35.4%
O=C(CSc1ncnc2c1cnn2CCO)Nc1cccc(C(F)(F)F)c1 | inactive: 54.7%
Cc1cc(C)nc(N(C#N)CCOc2ccc(Cl)cc2)n1 | inconclusive: -63.3%
CC(C)(C)SCCNC(=O)c1ccccc1 | inactive: -17.7%
CC1CN(c2c3c(nc4ncnn24)CCCC3)CC(C)O1 (configuration not stated) | inconclusive: -32.7%
Cc1ccc(Sc2ncnc3onc(C)c23)cc1 | inconclusive: -35%
CCOC(=O)c1[nH]c(C)c(C)c1C | inactive: -15.9%
CCOC(=O)N1CCN(C(=O)CSc2nnc(Cc3ccccc3)o2)CC1 | inconclusive: -47.1%
CCc1nnc(NC(=O)CSc2nnc(-c3ccco3)n2C)s1 | inactive: 14.1%
CCN1/C(=C(\O)c2ccccc2)C(=O)c2ccccc2S1(=O)=O | inconclusive: -30.4%
COc1cc(/C=c2\s/c(=C(/C#N)C(=O)N3CCCC3)n(-c3ccccc3)c2=O)ccc1O | inconclusive: -45.5%
CC(NC(=O)/C=C/c1ccc(Br)cc1)c1ccccc1 (configuration not stated) | active: -84.2%
Cc1nc2c(C(=O)N3CCOCC3)cnn2c(C)c1Cc1cccc(Cl)c1 | inconclusive: -43.5%

Structure (SMILES) | activity change (PNC), negative = inhibition
CC(=O)Nc1ccc(N=Nc2ccc(O)cc2)cc1 | inconclusive: -31.9%
CCOc1ccc(N(CC(=O)N2CCc3ccccc32)S(=O)(=O)c2c(C)noc2C)cc1 | inactive: -3.25%
CCOC(=O)c1ccc(NCC(O)COc2ccccc2)cc1 (configuration not stated) | active: -119%
O=C(CCl)N(c1ccc(Cl)cc1)c1c[nH]c2ccccc12 | inactive: 27.1%
CC(=O)Nc1cnc(NC(=O)c2cccc(F)c2)cc1C | inconclusive: -37.6%
O=C1CC(c2ccc(F)cc2)CC(O)=C1C1NCCc2ccccc21 (configuration not stated) | inconclusive: -32.5%
COc1ccccc1N1CCN(C(c2cc3cc(C)ccc3[nH]c2=O)c2nnnn2C2CCCC2)CC1 (configuration not stated) | inconclusive: -46.2%
O=C(NNC(=O)c1ccc(-c2ccccc2)cc1)c1ccccc1 | inconclusive: -44.8%
O=C(O)COc1ccc2c3c(c(=O)oc2c1)CCC3 | inconclusive: -34.5%
O=[n+]1c2c(n([O-])c3cc(F)c(F)cc31)CCCC2 | inactive: 7.98%
Cc1ccc(C(=O)NC(=C(Cl)Cl)S(=O)(=O)c2ccccc2)cc1 | inconclusive: -78.5%
COc1ccc(NC(=O)c2ccccc2Cl)cc1NC(=O)CN1CCOCC1 | inconclusive: -62.7%
Cc1[nH]n(-c2ccccc2)c(=O)c1/C=N\NC(=O)C1COc2ccccc2O1 (configuration not stated) | inconclusive: -58.9%
COC(=O)c1ccc(Oc2nc(Nc3ccc(C)c(C)c3)nc(N(C)C)n2)cc1 | inconclusive: -44.5%
CCN1CCN(c2nc3c(c(=O)[nH]c(=O)n3C)n2CCCSc2ncccn2)CC1 | inactive: -6.49%
O=C(Nc1ccc2oc(-c3ccc(F)cc3)nc2c1)c1ccccc1F | inactive: -15.1%
Cn1c(=O)cc(OCC(=O)NCc2cccnc2)c2ccccc21 | inconclusive: -34.5%
COc1ccc(N=C2SC(CC(=O)Nc3ccc(F)cc3)C(=O)N2Cc2ccco2)cc1 (configuration not stated) | inactive: -6.36%
CCC(C)NC(=O)C1CCCN(c2nc(C)cc(OC)n2)C1 (configuration not stated) | inconclusive: -51.9%
NNC(=O)C1CCCn2c1nc1sc3c(c1c2=O)CCCC3 (configuration not stated) | inconclusive: -32.4%
Cn1cnnc1Sc1ccc(C(=O)NCCC23CC4CC(CC(C4)C2)C3)cc1[N+](=O)[O-] | inactive: -6.22%
CCOC(=O)c1sc(NC(=O)CSc2ncn(-c3ccccc3)n2)nc1C | inconclusive: -34.8%
COc1ccccc1-n1nnnc1SCC(=O)Nc1ccccn1 | inactive: 18.7%

Structure (SMILES) | activity change (PNC), negative = inhibition
NNC(=O)c1ccc(COc2ccc3c(c2)CCC3)cc1 | inconclusive: -41.2%
Cc1ccc(CNC(=O)C(NS(=O)(=O)c2cccs2)C(C)C)cc1 (configuration not stated) | inconclusive: -44.5%
CC(=O)Nc1ccc(N/C=C/C(=O)c2ccco2)cc1 | inconclusive: -65.5%
Cc1ccnc(NC(=O)c2cc(-n3cnnc3)ccc2Cl)c1 | active: -100%
Cc1onc(-c2c(Cl)cccc2Cl)c1C(=O)Nn1cnnc1 | active: -107%
C/C=C/Cn1c(Br)nc2c1c(=O)[nH]c(=O)n2C | inconclusive: -40.1%
Cc1ccc(NC(=O)c2cc(-c3cccc(O)c3)on2)cc1C | inconclusive: -68.7%
COCCn1c(CN2CCN(c3cccc(Cl)c3)CC2)nc2c1c(=O)n(C)c(=O)n2C | inconclusive: -50.9%
COCc1cc(C)nc(OCC(=O)N/N=C/c2ccco2)c1C#N | inconclusive: -49%
CC(C)CCn1cnc2c(c1=O)c1nc3ccccc3nc1n2Cc1ccc2c(c1)OCO2 | inconclusive: -39.1%
OC(COCc1ccccc1)CN1CCN(c2ccccc2)CC1 (configuration not stated) | inconclusive: -48.7%
COc1ccc(OC)c(NC(=O)COC(=O)CN(C)S(=O)(=O)c2ccc(C)cc2)c1 | inconclusive: -50.9%
O=C(NCCCN1CCOCC1)C(C(=O)c1ccccc1)n1ccccc1=O (configuration not stated) | inactive: 25.5%
CC1CCN(C(=O)CSc2nc3ccccc3c(=O)n2Cc2ccc3c(c2)OCO3)CC1 | inactive: -18.1%
COc1cccc(-n2nnc3c(=O)n(Cc4ccc(C)cc4)cnc32)c1 | inactive: 12.7%
O=C(NCc1ccc2c(c1)OCO2)c1ccc(-n2cnnn2)cc1 | inconclusive: -34.2%
COc1cccc(C(=O)/C=C/c2ccc(SC)cc2)c1 | inactive: 61.3%
CCCSc1nc(N2CCOCC2)c2c(c1C#N)CC(C)(C)SC2 | inconclusive: -64.8%
CCCc1nnc(NC(=O)CN2C(=O)c3ccccc3C2=O)s1 | inconclusive: -53.3%
O=S(=O)(c1ccc(S(=O)(=O)n2cnc3ccccc32)cc1)N1CCCCCC1 | inconclusive: -55.6%
Cc1ccc(SCCC(=O)N2CCCC2)cc1 | inconclusive: -61.8%
CNC(=O)COc1cccc(C(=O)NCc2ccccc2)c1 | inconclusive: -34%
COc1cccc(OCC(=O)Nc2ccccc2NC(C)=O)c1 | inactive: -5.93%

Structure (SMILES) | activity change (PNC), negative = inhibition
Cc1cccc(C)c1NC(=O)N1C2CCCC1CC(NC(=O)C(C)(C)C)C2 (configuration not stated) | active: -96.4%
CCn1cnc2sc(C(=O)Nc3ccc4c(c3)OCO4)c(C)c2c1=O | inconclusive: -66.9%
CO/N=C(/CS(=O)(=O)Cc1ccccc1Cl)c1ccc(Cl)cc1Cl | inconclusive: -40.6%
Cc1nc(CS(=O)(=O)c2ccc(Cl)cc2)cc(Sc2ccccc2Cl)n1 | inconclusive: -61.8%
O=C(CSC1=NCCS1)Nc1ccc(S(=O)(=O)NC2CCCCC2)cc1 | inactive: -1.21%
CC1CCc2c(sc(NC(=O)CSc3nnc(-c4ccccc4)o3)c2C#N)C1 (configuration not stated) | inactive: -12%
COc1ccccc1N1CCN(C(CNS(=O)(=O)c2ccc(C)cc2)c2cccnc2)CC1 (configuration not stated) | active: -81.7%
Cc1cccc2sc(NC(=O)C3CCN(S(=O)(=O)c4cc([N+](=O)[O-])ccc4Cl)CC3)nc12 | inactive: 11.9%
Cc1ccc2c(Cl)c(C(=O)NCCCn3ccnc3)sc2c1 | inactive: -3.58%
CCOC(=O)C1CCCN(c2nc3ccccc3nc2C(C#N)C(=O)NCc2ccccc2)C1 (configuration not stated) | inconclusive: -61.9%
Cc1nnc(NC(=O)CSCc2ccccc2)s1 | active: -106%
O=C(COC(=O)C1CC(O)CN1C(=O)Oc1ccccc1)c1ccc(Br)cc1 (configuration not stated) | inconclusive: -41.4%
Cc1ccc(C)n1-c1ccc(-c2nnc3n2CCCCC3)s1 | inactive: 6.84%
CNC(=O)CSc1nnc(-c2cccnc2)n1CCc1ccccc1 | inactive: -14.7%
O=C(CSCc1ccc(Cl)cc1)Nc1ccc2c(c1)OCO2 | inconclusive: -43.6%
COc1ccc(/C(C)=N\NC(=O)CSc2nnc(C)s2)cc1 | inconclusive: -42.6%
COc1cc(CNc2ccc3[nH]c(=O)[nH]c3c2)cc(Cl)c1OCC(=O)NC(C)(C)C | inconclusive: -30.9%
O=C(CCc1nc2ccccc2s1)OCc1ccccc1 | inconclusive: -32.2%
O=C(c1cc(-c2ccccc2O)on1)N1CCc2ccccc2C1 | inconclusive: -40.7%
Cc1ccc(NC(=O)c2ccccc2[N+](=O)[O-])nc1 | inconclusive: -75.5%
COc1ccc(N(C(=O)Cn2nnc3ccccc32)C(C(=O)NCc2ccco2)c2cccnc2)cc1 (configuration not stated) | inconclusive: -34.8%
O=S(=O)(NC1CCCCC1)c1ccc(F)c2ccccc12 | inconclusive: -34.1%
O=C(NC(Nc1ncc(S(=O)(=O)c2ccc([N+](=O)[O-])cc2)s1)(C(F)(F)F)C(F)(F)F)c1ccc(Cl)cc1 | inactive: 20.4%
